Experimental data taken from patent US7981875B2, “2″ oxo-voruscharin and derivatives thereof” (priority 2002, dated 2011).

Test system: Hs683
Assay: MTT test, overall cell growth
Format: cell-based, human
Conditions: cell line Hs683
Protocol: In order to characterize the in vitro activities of the compounds according to the invention, MTT tests were carried out. The MTT test, which is a well-known test in the art, is an indirect technique that rapidly measures, i.e. within 5 days, the effect of a given product on the overall cell growth. This test measures the number of metabolically active living cells that are able to transform the MTT product (3-(4,5-dimethylthiazol-2-yl)-2,5 diphenyl tetrazolium bromide), having a yellowish color, to the blue product formazan dye by mitochondrial reduction. The amount of formazan obtained at the end of the experiment is measured with a spectrophotometer and is directly proportional to the number of living cells. Determination of the optical density enables a quantitative measurement of the effect of the investigated compounds as compared to the control condition (untreated cells) and to compare it to other reference compound. […]
After 72 hours of incubation at 37° C. with the compound (experimental conditions) or without the compound (control condition), the medium was replaced by 100 μl MTT at the concentration of 1 mg/ml dissolved in RPMI. […] The micro wells were shaken for 5 minutes and read on a spectrophotometer at the wavelengths of 570 nm corresponding to the maximum formazan absorbance wavelength, and of 630 nm, which is the background noise wavelength. […]

SMILES | IC50 value lower than the IC50 value of compound B
CC1CC2(NC(=O)CS2)C2(O)OC3CC4(C=O)C(CCC5C4CCC4(C)C(C6=CC(=O)OC6)CCC54O)CC3OC2O1 (centres unmarked) [2″oxo-voruscharin, 2″ oxo-voruscharin] | 1000 fold
C[C@@H]1CC2(N=CCS2)C2(O)O[C@@H]3C[C@]4(C=O)C5CC[C@]6(C)[C@@H](C7=CC(=O)OC7)CC[C@]6(O)[C@@H]5CC[C@H]4C[C@H]3O[C@@H]2O1 (some centres unmarked) [uscharin] | 1000 fold
